Measured values as given in patent US20150198603A1 (TORAY INDUSTRIES, published 2015).
No constants are given. Whether binding was seen depends on the method and setting. Binding can be weak; no strength is given.

Target: cat CAPRIN-1 in cat breast cancer tissues (cat)
Assay: immunohistochemical staining of frozen cat breast cancer tissue sections, 10 µg/mL antibody

binding: binds
B1: mouse anti-human CAPRIN-1 monoclonal antibody #14 (antibody, V domains shown)
VH: GAELVKPGASVKLSCTASGLNIRDIYMHWVKQRPEQGLEWIGKIDPANGNTKYDPKFQGKATITADTSSNTAYVQLSSLTSEDTAVYYCAGTGDYWGQGTTVTVSS
VL: GTCGDIVMSQSPSSLAVSAGEKVTMSCKSSQSLLNSRTRKNYLAWVQHKPGQSPRLLIYWASTRESGVPDRFTGSGSGTDFTLTISSVQAEDLAVYYCRQSYNLVTFGAGPS
